Source: PubChem BioAssay AID1671190 (National Center for Advancing Translational Sciences (NCATS), 2021)
Screen size: about 580,000 compounds; about 6,100 (1.1%) were called active. The inconclusive results got no clear call from the source; some entries with a clear call stand among them for comparison. Calls follow the shape of the dose curve; as a rule, active = well fitted inhibition curve with a large enough effect; inconclusive = small, poorly fitted or top-dose-only effect, or another doubt; inactive = no such curve, though single readings can be large or run the other way. Potencies beside an inconclusive call are fits to weak or partial responses and may not hold up.

The chains behind the UniProt entries cited, without tags or fusion partners. Where a name states a change or a piece, a line headed by the entry shows the natural chain unless it says otherwise.
UniProt P18054: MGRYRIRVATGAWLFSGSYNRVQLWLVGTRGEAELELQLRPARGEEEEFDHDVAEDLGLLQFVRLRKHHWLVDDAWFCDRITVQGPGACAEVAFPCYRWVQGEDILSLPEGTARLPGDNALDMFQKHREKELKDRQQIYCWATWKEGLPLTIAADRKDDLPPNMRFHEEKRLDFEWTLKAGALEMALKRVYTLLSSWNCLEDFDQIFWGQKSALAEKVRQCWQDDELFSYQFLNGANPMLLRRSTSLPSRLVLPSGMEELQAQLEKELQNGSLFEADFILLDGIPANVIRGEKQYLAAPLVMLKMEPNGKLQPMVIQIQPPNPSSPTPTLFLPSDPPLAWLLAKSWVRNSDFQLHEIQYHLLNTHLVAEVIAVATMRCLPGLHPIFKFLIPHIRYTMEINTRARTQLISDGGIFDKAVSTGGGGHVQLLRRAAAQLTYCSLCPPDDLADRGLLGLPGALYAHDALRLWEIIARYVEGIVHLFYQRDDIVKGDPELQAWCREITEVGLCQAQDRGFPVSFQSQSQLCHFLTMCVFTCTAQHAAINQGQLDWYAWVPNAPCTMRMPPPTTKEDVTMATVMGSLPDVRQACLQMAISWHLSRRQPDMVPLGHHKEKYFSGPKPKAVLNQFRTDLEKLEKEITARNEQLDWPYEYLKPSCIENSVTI

What follows are molecules tested against Polyunsaturated fatty acid lipoxygenase ALOX12 (Homo sapiens) (UniProt P18054) (assay: Primary qHTS assay for inhibitors of human arachidonate 12S-lipoxygenase (ALOX12): Round 2). Details: purified 12hLO, xylenol orange hydroperoxide absorbance; activity change, negative = inhibition: at 108 µM (top of the series) unless noted.
How it was run: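 Purified human 12hLO (150 nM final) in 25 mM Hepes, 0.01% Triton X-100, pH 7.0 was preincubated 15 min at room temperature with compound. Then 40 uM arachidonic acid was added, 30 min. Hydroperoxide was read by Fe-XO absorbance ratio 573/405 nm.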
% is scaled to controls: 0 for no effect and ±100 for the full control effect; potency is read from the fitted curve at half-maximal effect.

Which Potency does the source give for `O=C1c2oc3ccccc3c(=O)c2C(c2cccc(O)c2)N1Cc1ccc(F)cc1` (centres undefined) here?
Its Potency is inconclusive: 126 µM [inhibitor, single point].

With `COc1ccccc1Nc1nc(C)nc2c1oc1ccccc12` as the molecule, how does the Potency read?
The Potency was inconclusive: 17.8 µM [inhibitor, partial curve, poor fit].

With `O=c1cc2oc3cc(O)c(O)cc3c(-c3ccccc3[N+](=O)[O-])c-2cc1O` as the molecule, how does the Potency read?
Its Potency is inconclusive: 0.562 µM [inhibitor, full curve, poor fit].

With `O=C(NC1CC2CCCC(C1)N2C(=S)Nc1ccccc1Cl)C1CC1` (centres undefined) as the molecule, how does the Potency read?
Its Potency is inconclusive: 56.2 µM [inhibitor, partial curve, poor fit].

How did the Potency turn out when `Cc1c(OCC(=O)Nc2ccc(F)c(Cl)c2)c(=O)ccn1C` was run?
Its Potency is inconclusive: 31.6 µM [inhibitor, single point].

For `COCCNC(=O)C1(C)CCCN(Cc2cc(-c3ccccc3)on2)C1` (centres undefined), which “activity change, negative = inhibition” value is on record?
The value was inactive: -24.9%.

`CCN1C(=O)[C@H]2[C@H]3CN=C(SCc4ccccc4)N3[C@@](C)(C(=O)OC)[C@H]2C1=O` was tested. Which Potency did it give?
The Potency was inconclusive: 44.7 µM [inhibitor, partial curve, poor fit].

With `CC(NC(=O)C1CCCc2ccccc21)c1ccc(Br)cc1` (centres undefined) as the molecule, how does the Potency read?
Its Potency is inconclusive: 44.7 µM [inhibitor, single point].

For `Cc1ccc(OCC(=O)Nc2ccc3[nH]ncc3c2)cc1C`, which “activity change, negative = inhibition” value is on record?
The value was inactive: 13.6%.

Which Potency does the source give for `COc1ccc(Nc2ccccc2N)cc1` here?
The Potency was inconclusive: 31.6 µM [inhibitor, partial curve, poor fit].

With `COc1ccccc1-c1noc(CCC(=O)Nc2cccc(C)c2)n1` as the molecule, how does the Potency read?
The Potency was inconclusive: 31.6 µM [inhibitor, partial curve, poor fit].

For `COCCN(Cc1ccc(C)cc1)C(=O)[C@H]1O[C@@H](n2cnc3c(N)ncnc32)[C@H](O)[C@@H]1O`, which Potency is on record?
The Potency was inconclusive: 35.5 µM [inhibitor, single point].

With `N#CC1(NC(=O)CNc2ccc(-c3nnnn3C3CC3)cc2)CCCC1` as the molecule, how does the “activity change, negative = inhibition” value read?
Its value is inactive: -2.29%.

With `COc1ccccc1CCn1cnc(-c2ccccc2)c1C(C)C` as the molecule, how does the Potency read?
Its Potency is inconclusive: 63.1 µM [inhibitor, partial curve, poor fit].

`Cc1ccc(-c2cc(C(=O)NC(C)CCc3ccccc3)c3cc(Br)ccc3n2)cc1` (centres undefined) was tested. Which “activity change, negative = inhibition” value did it give?
The value was inactive: -9.3%.

With `O=C1CN(C(=O)c2ccc(S(=O)(=O)N3CCCC3)cc2)C(c2ccc(F)cc2)c2cc(F)ccc2N1` (centres undefined) as the molecule, how does the Potency read?
The Potency was inconclusive: 141 µM [inhibitor, single point].

Which “activity change, negative = inhibition” value does the source give for `CC(C)NC(=O)Nc1ccc2c(c1)CC(=O)N([C@@H](C)CO)C[C@H](C)[C@@H](CN(C)C(=O)NC1CCCCC1)O2` here?
The value was inactive: 9.22%.

`CCc1ccc(NS(=O)(=O)c2ccc3[nH]cc(C(=O)N4CCCCCC4)c(=O)c3c2)cc1` was tested. Which Potency did it give?
The Potency was inconclusive: 50.1 µM [inhibitor, partial curve, poor fit].

Which Potency does the source give for `Clc1ccccc1-c1cc2nc(NCc3ccco3)ccn2n1` here?
The Potency was inconclusive: 50.1 µM [inhibitor, partial curve, poor fit].

Which “activity change, negative = inhibition” value does the source give for `Cc1nnc(SCc2nnc(-c3cccs3)o2)n1C1CCCCC1` here?
Its value is inactive: 9.28%.

How did the Potency turn out when `Cc1ccccc1S(=O)(=O)NC(=O)C1(C)CCN1C(=O)Cc1cccs1` (centres undefined) was run?
Its Potency is inconclusive: 112 µM [inhibitor, single point].

How did the “activity change, negative = inhibition” value turn out when `C=CCn1c(-c2cc(-c3ccccc3)sc2N)n[nH]c1=S` was run?
Its value is inactive: -9.5%.

Which Potency does the source give for `CCCCn1c(SCC(=O)NC(C)(C)C)nc2ccccc2c1=O` here?
Its Potency is inconclusive: 56.2 µM [inhibitor, single point].

For `CNC(=O)CCn1ncc2cc(OCc3ccccc3-c3ccc(F)cc3F)ccc21`, which Potency is on record?
Its Potency is inconclusive: 89.1 µM [inhibitor, partial curve].

For `CC(=O)N1c2ccc(S(=O)(=O)NCCC(=O)Nc3ccc(Cl)cc3)cc2CC1C` (centres undefined), which “activity change, negative = inhibition” value is on record?
The value was inactive: -2.81%.

How did the “activity change, negative = inhibition” value turn out when `COc1cc(C2C(C(=O)Nc3ccc(C)cc3C)=C(C)Nc3nc(SCc4ccccc4)nn32)cc(OC)c1OC` (centres undefined) was run?
The value was inactive: -0.549%.

With `O=C(NC1CCCCC1)c1sc(=S)n2c1[nH]c(=O)c1ccccc12` as the molecule, how does the Potency read?
The Potency was inconclusive: 39.8 µM [inhibitor, partial curve, poor fit].

How did the Potency turn out when `CN1CCN(c2ccc(NC(=O)c3ccc4c(c3)[nH]c(=O)n4Cc3ccc(F)cc3)cc2)CC1` was run?
The Potency was inconclusive: 50.1 µM [inhibitor, partial curve, poor fit].

How did the Potency turn out when `COc1ccc(/C=C\C(=O)c2c(O)ccc3c(C)cc(=O)oc23)cc1OC` was run?
The Potency was inconclusive: 1.58 µM [inhibitor, full curve, poor fit].

Which Potency does the source give for `O=C(NC1CCCC1)c1cc(C2CC2)nc2onc(C3CCNCC3)c12` here?
The Potency was inconclusive: 79.4 µM [inhibitor, partial curve].

`COc1ccc(-n2c(C)ccc2C)c([N+](=O)[O-])c1` was tested. Which Potency did it give?
Its Potency is inconclusive: 112 µM [inhibitor, single point].

For `COc1ccc(S(=O)(=O)N2CCOC2CNC(=O)C(=O)NCCCN2CCCC2=O)cc1OC` (centres undefined), which Potency is on record?
Its Potency is inconclusive: 44.7 µM [inhibitor, partial curve, poor fit].

How did the “activity change, negative = inhibition” value turn out when `COc1ccc(OC)c(Nc2nc3ccccc3nc2NS(=O)(=O)c2ccc(F)cc2)c1` was run?
Its value is inactive: -4.24%.

`COc1cc(/C=N/NC(N)=S)ccc1OC(=O)c1ccc(C)cc1` was tested. Which Potency did it give?
The Potency was inconclusive: 112 µM [inhibitor, partial curve, poor fit].

For `CCOCCCNC(=O)C(c1ccccc1)N(Cc1ccc2c(c1)OCO2)C(=O)c1ccccc1O` (centres undefined), which “activity change, negative = inhibition” value is on record?
The value was inactive: 8.38%.

With `CN(C)C(=O)/C=C/c1ccc(-c2ccccc2F)o1` as the molecule, how does the Potency read?
The Potency was inconclusive: 44.7 µM [inhibitor, partial curve, poor fit].

`O=C(/C=C/c1c(F)cccc1Cl)c1ccc(O)cc1` was tested. Which Potency did it give?
Its Potency is inconclusive: 50.1 µM [inhibitor, partial curve, poor fit].

With `CCCCn1c(SCC(=O)Nc2cccc(OC)c2)nc2ccsc2c1=O` as the molecule, how does the Potency read?
Its Potency is inconclusive: 100 µM [inhibitor, partial curve, poor fit].

Which Potency does the source give for `CC1=C(C(=O)N(C)C)CC(CC(=O)NCCCN(C)C)C(=O)N1CCC1=CCCCC1` (centres undefined) here?
The Potency was inconclusive: 31.6 µM [inhibitor, partial curve].

`CN1C(=O)/C(=C/c2cccc([N+](=O)[O-])c2)C(=O)N1c1ccccc1` was tested. Which Potency did it give?
The Potency was active: 39.8 µM.

For `Cn1c(=O)c(=O)n(C)c2cc(S(=O)(=O)NCc3ccc(Cl)cc3)ccc21`, which “activity change, negative = inhibition” value is on record?
Its value is inactive: 1.95%.

Which Potency does the source give for `Cc1ccc(C(=O)c2cccc(C(=O)c3ccc(C)cc3)c2)cc1` here?
The Potency was inconclusive: 25.1 µM [inhibitor, single point].

With `CCNc1c(NC(=O)NCc2cccc(OC)c2)c(=O)oc2ccccc12` as the molecule, how does the Potency read?
The Potency was inconclusive: 39.8 µM [inhibitor, partial curve, poor fit].

How did the “activity change, negative = inhibition” value turn out when `COc1ccc(/C=N/c2oc(-c3ccccc3)cc2C#N)cc1OC` was run?
Its value is inactive: 101%.

With `CC1=C[C@@H](CNC(=O)c2ccccn2)[C@H](C(C)C)C[C@H]1Cc1nnc(-c2ccncc2)o1` as the molecule, how does the “activity change, negative = inhibition” value read?
Its value is inactive: -0.141% [at 176 µM].

With `Cc1ccc(C2/C(=C(\O)c3ccc4c(c3)OCCO4)C(=O)C(=O)N2CCc2ccccc2)cc1` (centres undefined) as the molecule, how does the Potency read?
The Potency was inconclusive: 50.1 µM [inhibitor, partial curve, poor fit].

For `O=C(Nc1ccc(Cl)cc1)N1CCC(c2nn(-c3ccc(Cl)cc3)c(=O)[nH]2)CC1`, which Potency is on record?
Its Potency is active: 12.6 µM.

`Cc1ccnn1CC(=O)N/N=C/c1c[nH]c2ccccc12` was tested. Which Potency did it give?
The Potency was inconclusive: 112 µM [inhibitor, partial curve, poor fit].

Which Potency does the source give for `CN(C(=O)c1cccc(NC(=O)Cc2ccc(NC(=O)C3CCN(C(=O)CCc4ccccc4)CC3)cc2)c1)C1CCC1` here?
The Potency was inconclusive: 56.2 µM [inhibitor, partial curve, poor fit].

For `Cc1[nH]c2ccccc2c1-c1csc(NC(=O)C2CCC2)n1`, which Potency is on record?
Its Potency is inconclusive: 50.1 µM [inhibitor, partial curve, poor fit].

With `O=C(Nc1ccc(Oc2ccccc2)nc1)C1CCN(Cc2ccccc2)CC1` as the molecule, how does the Potency read?
The Potency was inconclusive: 112 µM [inhibitor, partial curve, poor fit].

For `CCN(CC)CCCN(C(=O)c1ccc(OC)cc1)c1nc(-c2ccc(OC)cc2)cs1`, which Potency is on record?
Its Potency is inconclusive: 39.8 µM [inhibitor, partial curve, poor fit].

For `Cc1ccc(-n2c(C)cc(C(=O)NS(=O)(=O)c3ccc(C)cc3)c2C)cc1`, which “activity change, negative = inhibition” value is on record?
Its value is inactive: -21.9%.

For `Cc1nn2c(c1-c1ccccc1C(C)C)N(C(=O)Cc1ccccn1)CCC2`, which “activity change, negative = inhibition” value is on record?
The value was inactive: 0% [at 176 µM].

Which Potency does the source give for `COc1ccc(-n2c(Cc3cc(=O)[nH]c(=O)[nH]3)nnc2SCC(=O)N2CCC(C)CC2)cc1` here?
The Potency was inconclusive: 39.8 µM [inhibitor, single point].

`COc1ccccc1Nc1nnc(SCC(=O)N2CCCC2)s1` was tested. Which “activity change, negative = inhibition” value did it give?
The value was inactive: 4.44%.

For `COc1cc(C(=O)Nc2nccs2)c(Br)c(OC)c1OC`, which Potency is on record?
Its Potency is inconclusive: 5.01 µM [inhibitor, full curve, poor fit].

With `CC(=O)CC(C)(C)Nc1nc2ccc([N+](=O)[O-])cc2o1` as the molecule, how does the Potency read?
The Potency was inconclusive: 141 µM [inhibitor, single point].

How did the Potency turn out when `COc1ccc(NC(=O)C2CCCCN2N)cc1OCC(C)C` (centres undefined) was run?
Its Potency is inconclusive: 0.199 µM [inhibitor, full curve, poor fit].

With `COCCNC(=S)NNc1ccccc1[N+](=O)[O-]` as the molecule, how does the Potency read?
Its Potency is inconclusive: 0.891 µM [inhibitor, full curve, poor fit].

How did the “activity change, negative = inhibition” value turn out when `COc1ccc(NC(=O)C2CCC(CNS(=O)(=O)c3csc(C(N)=O)c3)CC2)cc1` (centres undefined) was run?
The value was inactive: -28.3%.

How did the Potency turn out when `O=C(COC(=O)COc1ccccc1)Nc1ncc([N+](=O)[O-])s1` was run?
Its Potency is inconclusive: 35.5 µM [inhibitor, single point].

For `COCC(C)NC(=S)N1CCN(c2ccccc2Cl)CC1` (centres undefined), which “activity change, negative = inhibition” value is on record?
The value was inactive: -2.27%.
